{"source": "patent US20090035287A1", "about": "“ATRIAL NATRIURETIC PEPTIDE (ANP) SPLICE VARIANTS AND METHODS OF USING SAME” (priority 2005, published 2009)", "test_system": "spontaneously hypertensive rats (SHR)", "experiment": "Renal and cardiovascular effects in anesthetized spontaneously hypertensive rats, 30-min intravenous infusion", "format": "in vivo, rat", "details": "i.v. infusion 1 μg/kg/min × 30 min", "procedure": "The assay was performed with anesthetized spontaneously hypertensive rats (SHR) following intravenous administration of the various ANP-proteins by a 30-min infusion.\nMale Wistar-Okamoto derived spontaneously hypertensive rats (SHR) provided by National Laboratory Animal Center were used. Space allocation for 6 rats was 45×23×15 cm. All animals were maintained in a controlled temperature (23° C.-24° C.) and humidity (60%-70%) environment with 12 hours light dark cycles for at least one week in MDS Pharma Services—Taiwan Laboratory prior to use. Free access to standard lab chow (Laboratory Rodent Diet MF-18; Oriental Yeast Co., Ltd. Japan) and RO water was granted. All aspects of this work including housing, experimentation and disposal of animals were performed in general accordance with the Guide for the Care and Use of Laboratory Animals (National Academy Press, Washington, D.C., 1996).\nGroups of 5 male rats (SHR) weighing 250-300 g were employed. Rats were anaesthetized with Inactin (120 mg/kg i.p.). The left carotid artery, jugular vein, and bladder were cannulated with polyethylene (PE50) catheters. […] Heart rate was derived from pulse pressure signals and monitored on a Data Acquisition and Analytic System (Power Lab 8/SP, AD Instruments, Australia). […] Urinary Na^+ concentration was measured with an atomic absorption spectrometer. […]", "note": "Some of these results come from one statement about several compounds together.", "data": [{"smiles": "CC[C@H](C)[C@@H]1NC(=O)[C@H](CCCNC(=N)N)NC(=O)[C@H](CC(=O)O)NC(=O)[C@H](CCSC)NC(=O)[C@H](CCCNC(=N)N)NC(=O)CNC(=O)CNC(=O)[C@H](Cc2ccccc2)NC(=O)[C@@H](NC(=O)[C@H](CO)NC(=O)[C@H](CO)NC(=O)[C@H](CCCNC(=N)N)NC(=O)[C@H](CCCNC(=N)N)NC(=O)[C@H](CC(C)C)NC(=O)[C@@H](N)CO)CSSC[C@@H](C(=O)N[C@@H](CC(N)=O)C(=O)N[C@@H](CO)C(=O)N[C@@H](Cc2ccccc2)C(=O)N[C@@H](CCCNC(=N)N)C(=O)N[C@@H](Cc2ccc(O)cc2)C(=O)O)NC(=O)CNC(=O)[C@H](CC(C)C)NC(=O)CNC(=O)[C@H](CO)NC(=O)[C@H](CCC(N)=O)NC(=O)[C@H](C)NC(=O)CNC1=O", "note": "[Carperitide, reference compound]", "values": [{"measurement": "absolute change of mean arterial pressure (MAP-infusion minus MAP-baseline)", "result": "−31-40 mmHg"}]}]}
